According to PubChem BioAssay AID2685 (National Center for Advancing Translational Sciences (NCATS), 2010):
Screen size: about 320,000 compounds; about 2,100 (0.66%) were called active. Inconclusive results, whose numbers are uncertain, are shown with a selection of clear calls. The call rests on the fitted dose curve; in most records, active means well fitted inhibition curve with a large enough effect in the signal ratio, with a control signal flat (not every such curve was filed as active); inconclusive means small, poorly fitted or top-dose-only effect, or effect the other way, or a change in a side signal; inactive means flat fitted curve, though single readings scatter; the % refers to the signal ratio. Potencies of inconclusive entries are doubtful fits and often do not repeat.

assay: qHTS Assay for Lipid Storage Modulators in Drosophila S3 Cells; details: BODIPY lipid droplet fluorescence, 18-24 h, cells fed with added oleic acid; lipid storage change, negative = inhibition: at 46.1 µM (top of the series) unless noted
Procedure, shortened: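 Laser-scanning cytometry quantifies lipid droplet accumulation (500–530 nm total intensity; droplet/cell object ratio) in oleic acid-fed (400 uM added) Drosophila S3 cells treated with a concentration series. 20 uM Triacsin C defined 100% inhibition.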
On the % scale 0 is the no-effect control and ±100 the full control effect; potency means the concentration at half of the fitted maximal effect.

Row | SMILES | lipid storage change, negative = inhibition | Potency
1 | Oc1ccc[n+](CC(O)c2ccccc2)c1 (stereo not given) | inconclusive: 36.4% | –
2 | COC(=O)C1=C(C)NC(C)=C(C(=O)OCC2CCCO2)C1c1cccc(Cl)c1 (stereo not given) | – | inconclusive: 0.0058 µM [activator, full curve, poor fit]
3 | Cc1ccc(NC(=O)CSCC(=O)N2CCN(Cc3ccc4c(c3)OCO4)CC2)cc1 | inactive | –
4 | COc1ccc(/C=C2\CCC/C(=C\C=N\N(C)C)C2=O)cc1 | inconclusive: -3.42% | –
5 | Cc1ccc(C)c(OCC(=O)NNC(=O)c2ccc(NC(=O)C3CC3)cc2)c1 | inconclusive: -108% | –
6 | COc1ccc(OC)c(CNC(=O)C2CCC(=O)N(CCCN3CCCC3=O)C2)c1 (stereo not given) | inactive | –
7 | Cc1ccc(-c2nc3ccccn3c2Nc2ccccc2)o1 | inconclusive: 1.21% | –
8 | CCN1CCN(C(=O)c2ccc3c(c2)c(C)c(C)n3Cc2ccccc2)CC1 | inconclusive: -0.7% | –
9 | Cc1cc(C)c2c(n1)nn1c(N3CCN(c4ccccn4)CC3)cc(C)nc21 | – | inconclusive: 6.51 µM [activator, partial curve, poor fit]
10 | COc1ccc2c(COC(=O)CNS(=O)(=O)c3ccc(C)c(C)c3)cc(=O)oc2c1 | inactive | –
11 | Fc1cccc2sc(Nc3nc4cc5c(cc4s3)OCO5)nc12 | inconclusive: -2.17% | –
12 | CCOc1ccc(CCNC(=O)CCC(=O)N2CCOc3ccc(C)cc32)cc1OCC | – | inconclusive: 14.6 µM [falling, partial curve, poor fit]
13 | Cc1c(CC(=O)O)c(=O)oc2cc3occ(-c4ccc(F)cc4)c3cc12 | inconclusive: -2.67% | –
14 | Cc1nnc(-c2cccc(C(F)(F)F)c2)nc1N1CCOCC1 | inactive | –
15 | Cc1cccc(N(C(=O)CNC(=O)c2cccs2)C(C(=O)NC2CCCC2)c2ccncc2)c1 (stereo not given) | inconclusive: -88.2% | –
16 | CC[C@H](C)[C@H](NC(N)=O)C(=O)Nc1ccc(S(=O)(=O)NC(C)C)cc1 | inactive | –
17 | CCC(CC)C(=O)NCCCN1CCOCC1 | inconclusive: -18.5% | –
18 | Fc1cccc(F)c1CN1CCN(c2ncccn2)CC1 | inconclusive: -3.37% | –
19 | O=C1[C@H]2[C@H](ON3CCCC[C@H]23)C(=O)N1c1ccc(Cl)cc1 | inconclusive: 6.36% | –
20 | Cc1cc(Nc2ccc(F)cc2)nc(N)n1 | – | inconclusive: 4.11 µM [activator, partial curve]
21 | c1ccc(CCn2nnnc2C(c2cccnc2)N2CCOCC2)cc1 (stereo not given) | inconclusive: -2.32% | –
22 | Nc1nc2n(c1C(=O)c1ccccc1)CCC2 | inconclusive: -2.12% | –
23 | O=C(/C=C\Nc1ccc2c(c1)OCO2)c1ccccn1 | inconclusive: 12.3% | –
24 | Cc1ccc2nc(SC(C)C(=O)N3CC(C)OC(C)C3)[nH]c2c1 (stereo not given) | inconclusive: 4.57% | –
25 | CCOC(=O)N1CCN(C(=O)c2ccc3c(c2)N(Cc2cccc(Cl)c2)C(=O)c2ccccc2S3=O)CC1 (stereo not given) | – | inconclusive: 29.1 µM [falling, single point]

Row | SMILES | lipid storage change, negative = inhibition | Potency
26 | COc1ccc(NC(=O)Cc2ccc(C)cc2)cc1S(=O)(=O)N1CCCCC1 | inconclusive: -2.86% | –
27 | Cc1cc(C(=O)OCC(=O)NC2CCS(=O)(=O)C2)c(C)n1-c1ccccc1 (stereo not given) | inconclusive: 110% | –
28 | COc1cccc(OCC(=O)NNC(=O)C(=O)Nc2ccc(OC)cc2OC)c1 | inconclusive: -43.7% [at 0.00295 µM] | –
29 | COCc1[nH]nc2c1C(c1sccc1C)C(C#N)=C(N)O2 (stereo not given) | – | inconclusive: 25.9 µM [falling, single point]
30 | COc1ccc(C(=O)/C=C/c2cccnc2)c(OC)c1 | – | inconclusive: 29.1 µM [falling, single point]
31 | COc1cccc(OC)c1C(=O)Nc1ccc2c(c1)OCCO2 | inconclusive: 64.4% | –
32 | CCOC(=O)CSc1nc(-c2ccc3c(c2)OCO3)ccc1C#N | inconclusive: -24.5% | –
33 | COCCOC(=O)c1c(C)oc2ccc(OCc3ccccc3)cc12 | inconclusive: 6.96% | –
34 | CCN(c1ccc(OC)cc1)S(=O)(=O)c1nnc(NC(=O)c2ccco2)s1 | – | inconclusive: 0.116 µM [activator, full curve, poor fit]
35 | Cc1cc(/C=C2/NC(=O)NC2=O)c(C)n1-c1ccccn1 | inconclusive: 80% | –
36 | O=C(COC(=O)[C@@H]1CC(O)CN1S(=O)(=O)c1ccccc1[N+](=O)[O-])Nc1ccc2ccccc2c1 (stereo not given in full) | – | inconclusive: 0.92 µM [activator, full curve, poor fit]
37 | COc1ccc(C(=O)Nc2ccc3nc4n(c(=O)c3c2)CCCC4)cc1[N+](=O)[O-] | inconclusive: 16.4% | –
38 | N=c1c2c(ncn1Cc1ccco1)Oc1c(ccc3ccccc13)C2c1ccccc1 (stereo not given) | inconclusive: -54.4% | –
39 | CN1CCN(C(=O)c2cc([N+](=O)[O-])ccc2Cl)CC1 | inconclusive: -38.2% | –
40 | CCCC(O)(CCC)C(=O)NNc1ccc(C)cc1 | inconclusive: 25.1% | –
41 | O=C(NCc1cccnc1)c1ccccc1-c1nc(-c2ccccc2)no1 | inconclusive: 14.9% | –
42 | CCCC(=O)NNc1cc(=O)c2c(=O)n(C)c(=O)n(C)c2[nH]1 | inconclusive: -76.2% | –
43 | CC(C)NC(=O)/C(=C/c1cn(-c2ccccc2)nc1-c1cccc([N+](=O)[O-])c1)NC(=O)c1ccccc1 | inconclusive: -11.2% | –
44 | CCCCOc1ccc(OCCSc2nc3ccccc3n2CC(=O)O)cc1 | – | inconclusive: 18.4 µM [activator, single point]
45 | COc1ccc(-c2nc(NC(C)=O)sc2-c2ccccc2)cc1 | inconclusive: 85.9% | –
46 | O=[N+]([O-])c1cc([N+](=O)[O-])c2nonc2c1Nc1ccc(O)cc1 | – | inconclusive: 29.1 µM [activator, single point]
47 | Oc1ccc(Br)cc1CNc1cnc2ccccc2c1 | – | inconclusive: 18.4 µM [activator, partial curve]
48 | COc1cc(C)c(Cl)cc1S(=O)(=O)n1ccnc1 | inconclusive: -50.7% [cytotoxic] [at 0.00295 µM] | –
49 | COc1ccc(CCNC(=O)CSc2n[nH]c(C)c2[N+](=O)[O-])cc1OC | inconclusive: 3.23% | –
50 | N#CCCN(C(=O)COC(=O)COc1ccccc1Cc1ccccc1)c1ccccc1 | inconclusive: -2.81% | –

Grouped by structure, the compounds so far with a cyano group (3)
Row | SMILES | lipid storage change, negative = inhibition | Potency
29 | COCc1[nH]nc2c1C(c1sccc1C)C(C#N)=C(N)O2 (stereo not given) | – | inconclusive: 25.9 µM [falling, single point]
32 | CCOC(=O)CSc1nc(-c2ccc3c(c2)OCO3)ccc1C#N | inconclusive: -24.5% | –
50 | N#CCCN(C(=O)COC(=O)COc1ccccc1Cc1ccccc1)c1ccccc1 | inconclusive: -2.81% | –
